Source: patent US20160022599A1, “System and Method for Fabrication of Uniform Polymer Films Containing Nano and Micro Particles via Continuous Drying Process” (NEW JERSEY INSTITUTE OF TECHNOLOGY, priority 2013, published 2016)

Assay: USP IV flow-through cell dissolution of films in SDS solution
Assay type: physicochemical
Settings: SDS media; similarity and difference factors

## COc1ccc2cc([C@H](C)C(=O)O)ccc2c1 [NPX, naproxen]
  dissolution profiles of films with vs without SDS: statistically similar dissolution profiles with and without SDS
